Results are given in words; binding and its absence hold for the method and conditions named. Binding seen in cells or lysates may run through a third protein.
Biological target: T1, murine cysteine rich intestinal protein 2 (mouse) (UniProt Q9DCT8)
T1 sequence: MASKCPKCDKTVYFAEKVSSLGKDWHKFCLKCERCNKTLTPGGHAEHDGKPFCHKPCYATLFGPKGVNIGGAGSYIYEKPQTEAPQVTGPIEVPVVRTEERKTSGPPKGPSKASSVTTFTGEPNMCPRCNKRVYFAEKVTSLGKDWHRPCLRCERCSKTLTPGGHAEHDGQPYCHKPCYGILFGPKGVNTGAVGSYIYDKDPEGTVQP
Assay: co-IP; immunoprecipitation attempts of mCrip2 and Brg1; no method or conditions told

By UniProt entry, the sequences of proteins in these tests, tags left out.
UniProt Q3TKT4: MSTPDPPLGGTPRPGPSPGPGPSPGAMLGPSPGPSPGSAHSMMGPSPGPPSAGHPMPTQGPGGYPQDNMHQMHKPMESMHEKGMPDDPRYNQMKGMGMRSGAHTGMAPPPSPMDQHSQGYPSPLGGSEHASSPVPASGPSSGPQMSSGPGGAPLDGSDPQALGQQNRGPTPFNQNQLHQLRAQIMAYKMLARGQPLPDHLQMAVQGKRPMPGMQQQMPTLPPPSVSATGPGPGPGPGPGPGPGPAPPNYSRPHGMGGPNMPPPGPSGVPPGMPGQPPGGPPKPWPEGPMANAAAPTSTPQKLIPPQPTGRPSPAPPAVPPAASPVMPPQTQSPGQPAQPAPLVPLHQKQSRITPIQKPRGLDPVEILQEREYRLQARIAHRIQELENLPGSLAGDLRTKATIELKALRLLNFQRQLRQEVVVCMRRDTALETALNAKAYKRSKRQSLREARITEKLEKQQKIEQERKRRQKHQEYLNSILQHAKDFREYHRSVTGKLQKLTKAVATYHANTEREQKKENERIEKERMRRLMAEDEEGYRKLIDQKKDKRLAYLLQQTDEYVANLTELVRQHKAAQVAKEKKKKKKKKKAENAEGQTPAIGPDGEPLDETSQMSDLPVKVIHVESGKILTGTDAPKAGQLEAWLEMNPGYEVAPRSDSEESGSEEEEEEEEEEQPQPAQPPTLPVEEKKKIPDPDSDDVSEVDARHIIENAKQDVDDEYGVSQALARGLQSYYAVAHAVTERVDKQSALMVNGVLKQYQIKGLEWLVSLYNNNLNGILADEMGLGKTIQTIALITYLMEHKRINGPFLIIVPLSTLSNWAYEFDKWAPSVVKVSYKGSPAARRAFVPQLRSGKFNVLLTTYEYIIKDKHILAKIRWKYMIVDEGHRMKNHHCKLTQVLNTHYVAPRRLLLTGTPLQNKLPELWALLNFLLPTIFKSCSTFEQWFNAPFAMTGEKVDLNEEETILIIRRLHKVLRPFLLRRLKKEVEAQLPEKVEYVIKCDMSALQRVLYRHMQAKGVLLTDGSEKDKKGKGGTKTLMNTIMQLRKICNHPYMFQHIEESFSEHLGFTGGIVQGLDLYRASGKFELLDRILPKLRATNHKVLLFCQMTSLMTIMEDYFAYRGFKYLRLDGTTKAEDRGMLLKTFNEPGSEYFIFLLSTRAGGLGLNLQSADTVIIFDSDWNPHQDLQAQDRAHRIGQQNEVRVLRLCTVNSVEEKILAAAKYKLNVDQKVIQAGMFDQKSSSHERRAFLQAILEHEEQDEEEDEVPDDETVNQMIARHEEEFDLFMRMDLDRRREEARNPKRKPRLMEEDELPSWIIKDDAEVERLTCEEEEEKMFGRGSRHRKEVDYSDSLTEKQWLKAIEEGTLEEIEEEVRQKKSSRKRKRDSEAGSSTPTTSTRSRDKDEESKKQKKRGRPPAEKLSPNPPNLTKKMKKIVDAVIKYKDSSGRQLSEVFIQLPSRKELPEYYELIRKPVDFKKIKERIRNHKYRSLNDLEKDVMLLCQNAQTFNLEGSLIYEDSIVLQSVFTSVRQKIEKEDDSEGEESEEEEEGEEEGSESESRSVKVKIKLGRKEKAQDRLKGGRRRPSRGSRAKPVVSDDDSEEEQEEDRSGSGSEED

binding: no binding
Substance: Brg1 (from UniProt Q3TKT4 1-1613)
